From the supplement of paper PMC6411743
± gives the standard deviation of the averaged measurements. The entries are a selection whose mix differs from that of the whole data set.

By UniProt entry, the sequences of proteins in these tests, tags left out. Where a name states a change or a piece, a line headed by the entry shows the natural chain unless it says otherwise.
UniProt Q16891: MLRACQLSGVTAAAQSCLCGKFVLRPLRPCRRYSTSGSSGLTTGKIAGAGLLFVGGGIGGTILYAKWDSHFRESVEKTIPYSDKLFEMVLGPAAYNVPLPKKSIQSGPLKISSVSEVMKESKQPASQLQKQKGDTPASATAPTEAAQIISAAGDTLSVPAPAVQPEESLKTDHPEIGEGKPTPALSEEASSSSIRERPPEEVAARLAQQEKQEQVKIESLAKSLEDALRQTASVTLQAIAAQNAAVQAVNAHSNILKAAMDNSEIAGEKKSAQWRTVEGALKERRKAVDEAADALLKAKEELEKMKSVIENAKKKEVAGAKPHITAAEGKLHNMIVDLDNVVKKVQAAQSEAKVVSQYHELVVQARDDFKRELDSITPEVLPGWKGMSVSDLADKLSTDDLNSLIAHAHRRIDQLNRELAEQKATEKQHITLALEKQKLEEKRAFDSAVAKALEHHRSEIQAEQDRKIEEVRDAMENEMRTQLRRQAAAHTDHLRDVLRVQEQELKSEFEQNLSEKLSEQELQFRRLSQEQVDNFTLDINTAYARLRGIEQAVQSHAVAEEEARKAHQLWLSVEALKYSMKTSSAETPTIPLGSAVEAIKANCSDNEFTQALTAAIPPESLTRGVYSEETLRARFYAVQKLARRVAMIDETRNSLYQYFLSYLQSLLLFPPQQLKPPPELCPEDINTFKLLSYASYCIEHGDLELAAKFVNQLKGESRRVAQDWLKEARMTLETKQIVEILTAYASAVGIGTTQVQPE
UniProt Q8NCE0: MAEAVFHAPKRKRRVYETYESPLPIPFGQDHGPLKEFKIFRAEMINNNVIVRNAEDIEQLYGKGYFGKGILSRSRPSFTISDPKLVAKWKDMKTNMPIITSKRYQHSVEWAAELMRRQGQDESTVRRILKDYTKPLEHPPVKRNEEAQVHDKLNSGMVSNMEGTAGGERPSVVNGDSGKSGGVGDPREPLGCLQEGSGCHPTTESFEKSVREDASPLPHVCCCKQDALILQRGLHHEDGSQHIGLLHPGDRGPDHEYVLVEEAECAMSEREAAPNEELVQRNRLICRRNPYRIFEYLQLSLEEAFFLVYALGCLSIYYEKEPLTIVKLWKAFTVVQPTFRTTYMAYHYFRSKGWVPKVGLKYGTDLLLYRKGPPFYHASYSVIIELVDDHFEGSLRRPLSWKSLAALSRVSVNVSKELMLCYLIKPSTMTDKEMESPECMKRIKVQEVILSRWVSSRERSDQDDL
UniProt P24864, whole entry: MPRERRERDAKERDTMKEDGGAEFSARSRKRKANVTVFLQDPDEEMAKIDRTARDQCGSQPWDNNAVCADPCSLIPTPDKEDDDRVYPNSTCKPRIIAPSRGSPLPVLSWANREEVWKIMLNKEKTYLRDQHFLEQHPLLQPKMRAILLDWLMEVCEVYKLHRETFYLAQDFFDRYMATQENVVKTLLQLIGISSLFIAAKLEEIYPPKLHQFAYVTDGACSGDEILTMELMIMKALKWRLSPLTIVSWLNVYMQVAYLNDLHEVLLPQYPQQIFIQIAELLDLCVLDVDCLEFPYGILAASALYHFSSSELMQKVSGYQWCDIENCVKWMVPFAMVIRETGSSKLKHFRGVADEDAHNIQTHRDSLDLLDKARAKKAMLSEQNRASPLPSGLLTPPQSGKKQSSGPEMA
UniProt O95772: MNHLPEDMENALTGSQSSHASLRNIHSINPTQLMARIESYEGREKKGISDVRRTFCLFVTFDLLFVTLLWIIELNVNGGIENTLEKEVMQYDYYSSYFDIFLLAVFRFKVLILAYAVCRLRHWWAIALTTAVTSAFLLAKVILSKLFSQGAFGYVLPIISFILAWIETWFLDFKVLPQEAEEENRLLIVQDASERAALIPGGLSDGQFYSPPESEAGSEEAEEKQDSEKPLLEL
UniProt A4D1P6: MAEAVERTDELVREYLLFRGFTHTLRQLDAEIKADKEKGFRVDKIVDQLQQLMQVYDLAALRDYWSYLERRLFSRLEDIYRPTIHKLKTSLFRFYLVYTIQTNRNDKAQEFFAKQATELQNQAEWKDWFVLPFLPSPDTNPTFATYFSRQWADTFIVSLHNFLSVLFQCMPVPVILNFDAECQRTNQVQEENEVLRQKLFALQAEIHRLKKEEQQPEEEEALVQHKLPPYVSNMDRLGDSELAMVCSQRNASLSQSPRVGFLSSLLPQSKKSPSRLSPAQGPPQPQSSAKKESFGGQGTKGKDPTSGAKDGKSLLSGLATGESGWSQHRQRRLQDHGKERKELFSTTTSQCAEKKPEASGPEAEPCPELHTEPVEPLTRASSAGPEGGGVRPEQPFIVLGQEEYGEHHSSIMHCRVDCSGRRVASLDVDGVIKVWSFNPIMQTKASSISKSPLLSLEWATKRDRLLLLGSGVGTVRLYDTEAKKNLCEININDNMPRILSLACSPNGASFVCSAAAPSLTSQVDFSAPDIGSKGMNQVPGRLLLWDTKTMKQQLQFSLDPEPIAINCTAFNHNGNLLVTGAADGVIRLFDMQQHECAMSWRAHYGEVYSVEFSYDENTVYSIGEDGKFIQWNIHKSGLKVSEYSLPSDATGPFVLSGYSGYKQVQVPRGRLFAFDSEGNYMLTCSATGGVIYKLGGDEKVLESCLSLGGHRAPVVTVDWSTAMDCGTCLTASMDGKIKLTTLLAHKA
UniProt Q8NEB9, whole entry: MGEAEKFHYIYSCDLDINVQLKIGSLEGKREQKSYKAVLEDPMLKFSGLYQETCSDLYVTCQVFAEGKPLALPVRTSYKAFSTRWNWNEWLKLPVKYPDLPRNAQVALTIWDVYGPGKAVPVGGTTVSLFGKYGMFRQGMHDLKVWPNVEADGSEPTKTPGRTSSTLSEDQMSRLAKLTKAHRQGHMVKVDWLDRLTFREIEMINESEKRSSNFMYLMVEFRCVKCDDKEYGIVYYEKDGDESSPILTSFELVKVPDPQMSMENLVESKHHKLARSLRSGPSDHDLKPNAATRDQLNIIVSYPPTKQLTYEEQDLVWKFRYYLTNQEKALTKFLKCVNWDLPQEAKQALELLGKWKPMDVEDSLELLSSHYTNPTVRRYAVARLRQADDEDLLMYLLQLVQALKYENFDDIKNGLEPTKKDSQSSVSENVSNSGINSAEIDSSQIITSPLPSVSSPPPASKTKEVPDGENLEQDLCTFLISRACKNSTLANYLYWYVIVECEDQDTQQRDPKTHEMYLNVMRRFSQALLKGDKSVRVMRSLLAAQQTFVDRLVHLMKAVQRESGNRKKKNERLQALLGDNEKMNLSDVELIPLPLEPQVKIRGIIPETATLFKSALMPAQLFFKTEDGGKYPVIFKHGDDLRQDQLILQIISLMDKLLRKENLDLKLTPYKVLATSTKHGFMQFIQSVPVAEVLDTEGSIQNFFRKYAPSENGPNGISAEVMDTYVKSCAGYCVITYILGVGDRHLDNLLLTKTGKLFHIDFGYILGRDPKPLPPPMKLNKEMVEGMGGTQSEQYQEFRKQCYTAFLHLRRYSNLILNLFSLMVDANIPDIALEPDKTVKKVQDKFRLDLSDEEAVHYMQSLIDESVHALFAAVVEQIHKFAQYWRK
UniProt Q12979: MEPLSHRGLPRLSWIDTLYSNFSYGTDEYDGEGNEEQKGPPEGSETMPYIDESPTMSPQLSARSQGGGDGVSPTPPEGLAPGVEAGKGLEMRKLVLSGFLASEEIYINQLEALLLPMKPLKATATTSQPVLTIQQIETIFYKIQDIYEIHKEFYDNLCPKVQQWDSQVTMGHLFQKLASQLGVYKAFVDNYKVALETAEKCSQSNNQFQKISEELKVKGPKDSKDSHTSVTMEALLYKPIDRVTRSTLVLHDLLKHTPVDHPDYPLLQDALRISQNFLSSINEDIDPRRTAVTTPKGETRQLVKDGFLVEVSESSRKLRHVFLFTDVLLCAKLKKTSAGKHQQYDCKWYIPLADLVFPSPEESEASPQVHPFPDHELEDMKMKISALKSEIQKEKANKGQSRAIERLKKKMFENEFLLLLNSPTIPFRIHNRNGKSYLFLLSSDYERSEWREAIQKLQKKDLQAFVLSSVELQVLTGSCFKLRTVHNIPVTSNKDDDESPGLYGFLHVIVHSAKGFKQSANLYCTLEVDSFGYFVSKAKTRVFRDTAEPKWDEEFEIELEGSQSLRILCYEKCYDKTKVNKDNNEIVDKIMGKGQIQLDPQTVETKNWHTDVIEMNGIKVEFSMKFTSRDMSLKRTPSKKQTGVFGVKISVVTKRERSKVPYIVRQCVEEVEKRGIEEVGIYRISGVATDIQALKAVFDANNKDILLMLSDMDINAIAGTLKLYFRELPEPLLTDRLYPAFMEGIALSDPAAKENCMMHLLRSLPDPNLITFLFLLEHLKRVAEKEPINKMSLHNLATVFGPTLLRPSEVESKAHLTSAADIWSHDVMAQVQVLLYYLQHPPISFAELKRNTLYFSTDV
UniProt O14832: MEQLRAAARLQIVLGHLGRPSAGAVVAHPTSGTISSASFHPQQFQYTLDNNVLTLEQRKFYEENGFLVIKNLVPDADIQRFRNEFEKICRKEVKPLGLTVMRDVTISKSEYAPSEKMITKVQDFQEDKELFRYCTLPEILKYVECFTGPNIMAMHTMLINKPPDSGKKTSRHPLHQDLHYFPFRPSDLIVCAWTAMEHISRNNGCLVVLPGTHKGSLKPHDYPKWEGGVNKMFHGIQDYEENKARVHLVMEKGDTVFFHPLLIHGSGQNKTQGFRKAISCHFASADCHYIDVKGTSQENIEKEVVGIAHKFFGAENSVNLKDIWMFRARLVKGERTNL
UniProt O75122: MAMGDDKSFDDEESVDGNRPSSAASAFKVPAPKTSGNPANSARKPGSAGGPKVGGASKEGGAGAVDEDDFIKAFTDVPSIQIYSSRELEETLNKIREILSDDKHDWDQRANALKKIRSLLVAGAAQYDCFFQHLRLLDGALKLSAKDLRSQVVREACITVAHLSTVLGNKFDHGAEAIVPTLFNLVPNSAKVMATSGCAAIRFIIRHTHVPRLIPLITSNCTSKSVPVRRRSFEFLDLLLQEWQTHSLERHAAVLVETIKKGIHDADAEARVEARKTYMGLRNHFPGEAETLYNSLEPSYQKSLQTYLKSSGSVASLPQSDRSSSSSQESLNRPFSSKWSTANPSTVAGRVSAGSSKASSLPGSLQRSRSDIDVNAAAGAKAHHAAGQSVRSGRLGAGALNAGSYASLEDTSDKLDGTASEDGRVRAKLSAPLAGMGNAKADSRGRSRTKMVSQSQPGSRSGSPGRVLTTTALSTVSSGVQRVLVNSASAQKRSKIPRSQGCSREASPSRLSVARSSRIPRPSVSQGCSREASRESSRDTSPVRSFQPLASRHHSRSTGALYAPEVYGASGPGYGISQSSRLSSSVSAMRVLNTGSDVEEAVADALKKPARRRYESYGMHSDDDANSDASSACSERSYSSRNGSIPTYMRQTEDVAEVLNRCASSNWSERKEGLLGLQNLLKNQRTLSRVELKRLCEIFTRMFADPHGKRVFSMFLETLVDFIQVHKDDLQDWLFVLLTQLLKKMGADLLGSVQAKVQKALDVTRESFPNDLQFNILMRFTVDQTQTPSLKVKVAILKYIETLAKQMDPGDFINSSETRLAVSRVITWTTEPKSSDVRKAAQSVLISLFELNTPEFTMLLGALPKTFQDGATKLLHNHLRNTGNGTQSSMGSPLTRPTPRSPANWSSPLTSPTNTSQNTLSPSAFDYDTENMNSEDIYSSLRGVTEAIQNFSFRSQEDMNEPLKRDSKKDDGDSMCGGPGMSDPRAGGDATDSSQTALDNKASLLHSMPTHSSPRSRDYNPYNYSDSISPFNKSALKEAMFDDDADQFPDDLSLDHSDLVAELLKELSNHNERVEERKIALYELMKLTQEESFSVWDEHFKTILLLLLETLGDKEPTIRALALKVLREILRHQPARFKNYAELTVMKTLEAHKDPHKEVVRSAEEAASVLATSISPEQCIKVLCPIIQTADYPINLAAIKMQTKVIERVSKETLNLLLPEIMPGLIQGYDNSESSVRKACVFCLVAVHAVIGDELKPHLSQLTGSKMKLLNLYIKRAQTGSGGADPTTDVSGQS
UniProt Q9Y6E0: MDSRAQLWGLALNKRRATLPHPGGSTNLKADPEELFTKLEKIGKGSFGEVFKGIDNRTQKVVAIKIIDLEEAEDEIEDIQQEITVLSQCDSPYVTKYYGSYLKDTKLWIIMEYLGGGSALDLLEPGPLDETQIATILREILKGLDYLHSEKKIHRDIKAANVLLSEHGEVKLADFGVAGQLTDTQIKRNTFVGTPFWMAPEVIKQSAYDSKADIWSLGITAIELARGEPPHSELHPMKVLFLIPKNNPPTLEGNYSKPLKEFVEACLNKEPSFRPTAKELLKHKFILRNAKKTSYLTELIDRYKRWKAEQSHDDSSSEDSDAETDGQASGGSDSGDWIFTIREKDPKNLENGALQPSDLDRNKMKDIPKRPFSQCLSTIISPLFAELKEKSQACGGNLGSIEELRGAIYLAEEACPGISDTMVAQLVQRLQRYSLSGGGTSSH

Compound: Nc1ncnc2c1ncn2[C@@H]1O[C@H](COP(=O)(O)OP(=O)(O)NP(=O)(O)O)[C@@H](O)[C@H]1O [adenylyl imidodiphosphate]
Assay: NP40-soluble protein abundance relative to vehicle (solubility fold change) (ratio); higher = more soluble protein in presence of AMP-PNP
Procedure, shortened: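 Each value is a fold change relative to the detergent-processed vehicle, calculated per replicate from vsn-normalised intensities. Jurkat crude lysate received eight concentrations (0.1 to 10 mM) for 10 min at room temperature and 3 min at 37 °C, then was solubilised in 0.8% NP40 with benzonase (60 min, 4 °C). The ultracentrifuged supernatant was TMT-labelled and run by LC-MS/MS in three independent experiments.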

Target | NP40-soluble protein abundance (concentration: 1mM) | NP40-soluble protein abundance (concentration: 2mM) | NP40-soluble protein abundance (concentration: 4mM) | NP40-soluble protein abundance (concentration: 6mM) | NP40-soluble protein abundance (concentration: 8mM) | NP40-soluble protein abundance (concentration: 10mM)
C9JF66 and related entries (UniProt Q6PIZ9) | 1.01 ± 0.022 | 1.03 ± 0.062 | 1 ± 0.039 | 0.987 ± 0.029 | 0.966 ± 0.052 | 0.961 ± 0.013
UniProt A3KN83 and related entries | 1.03 ± 0.021 | 0.985 ± 0.035 | 1.01 ± 0.016 | 0.964 ± 0.026 | 0.971 ± 0.017 | 0.968 ± 0.013
C9J406 and related entries (UniProt Q16891) | 0.997 ± 0.07 | 1.01 ± 0.034 | 0.938 ± 0.08 | 0.946 ± 0.11 | 0.922 ± 0.083 | 0.939 ± 0.098
C9J7Z4 and related entries (UniProt Q8NCE0) | 0.984 ± 0.028 | 1.003 ± 0.0083 | 1.01 ± 0.021 | 0.998 ± 0.038 | 0.9859 ± 0.0091 | 0.979 ± 0.029
B4DZG7 and related entries (UniProt P40616) | 1 ± 0.11 | 0.887 ± 0.034 | 1.02 ± 0.039 | 0.994 ± 0.2 | 1.05 ± 0.12 | 0.99 ± 0.08
E2QRF9 and related entries (UniProt O75496) | 1.01 ± 0.034 | 1.02 ± 0.03 | 1.012 ± 0.0034 | 1 ± 0.023 | 1.01 ± 0.033 | 0.973 ± 0.034
C9J2U0 and related entries (UniProt P24864) | 0.913 ± 0.0092 | 0.822 ± 0.076 | 0.935 ± 0.011 | 0.936 ± 0.032 | 0.9933 ± 0.0062 | 0.953 ± 0.07
D3YTA9 and related entries (UniProt H7BYZ3+F6U1T9+P63098+D3YTA9) | 1.08 ± 0.015 | 1.16 ± 0.085 | 1.118 ± 0.0014 | 1.07 ± 0.011 | 1.07 ± 0.017 | 1.095 ± 0.0046
C9JKL2 and related entries (UniProt O95772) | 1.02 ± 0.019 | 1.04 ± 0.036 | 1.01 ± 0.016 | 0.989 ± 0.028 | 0.989 ± 0.019 | 1 ± 0.034
B9EGE7 and related entries (UniProt Q8TCN5) | 0.959 ± 0.039 | 0.997 ± 0.019 | 0.956 ± 0.045 | 0.952 ± 0.03 | 0.928 ± 0.042 | 0.928 ± 0.03
B7Z5R0 (UniProt Q9BV97) | 0.9927 ± 0.0082 | 1.03 ± 0.013 | 1.02 ± 0.026 | 0.995 ± 0.018 | 0.995 ± 0.021 | 0.98 ± 0.018
B4E0Y9 and related entries (UniProt Q9P289) | 0.999 ± 0.019 | 1.03 ± 0.059 | 1.01 ± 0.034 | 1.05 ± 0.036 | 1.01 ± 0.045 | 1.06 ± 0.039
B4DJL6 and related entries (UniProt Q96SY0) | 1.005 ± 0.0035 | 0.998 ± 0.022 | 1.04 ± 0.029 | 1.02 ± 0.042 | 1.01 ± 0.015 | 1.04 ± 0.038
A8MZH8 and related entries (UniProt P53801) | 1.017 ± 0.0061 | 1.09 ± 0.13 | 1.05 ± 0.018 | 1.07 ± 0.062 | 1.11 ± 0.058 | 1.09 ± 0.033
C9J0Q5 and related entries (UniProt Q9Y618) | 1.03 ± 0.0079 | 1.05 ± 0.04 | 1.03 ± 0.035 | 0.969 ± 0.057 | 0.951 ± 0.02 | 1.01 ± 0.052
A6NEP9 and related entries (UniProt Q8NG11) | 1.002 ± 0.008 | 0.988 ± 0.043 | 0.962 ± 0.015 | 0.998 ± 0.031 | 0.943 ± 0.037 | 0.967 ± 0.023
A2IDA3 and related entries (UniProt P29372) | 1.05 ± 0.035 | 1.04 ± 0.011 | 1.09 ± 0.036 | 1.14 ± 0.038 | 1.14 ± 0.0089 | 1.21 ± 0.016
UniProt A4D1P6 and related entries | 1.05 ± 0.027 | 1.08 ± 0.042 | 1.02 ± 0.024 | 0.995 ± 0.063 | 0.978 ± 0.025 | 1 ± 0.048
C9JRZ6 and related entries (UniProt Q9NX63) | 1.03 ± 0.062 | 1.04 ± 0.044 | 0.954 ± 0.052 | 0.95 ± 0.1 | 0.95 ± 0.083 | 0.95 ± 0.1
A8MYT4 and related entries (UniProt Q8NEB9) | 0.995 ± 0.019 | 0.931 ± 0.099 | 0.989 ± 0.044 | 0.93 ± 0.048 | 0.937 ± 0.039 | 0.906 ± 0.04
B7Z683 and related entries (UniProt Q12979) | 0.981 ± 0.016 | 0.956 ± 0.061 | 0.99 ± 0.013 | 0.931 ± 0.014 | 0.974 ± 0.049 | 0.942 ± 0.045
B1ALH6 and related entries (UniProt O14832) | 0.99 ± 0.012 | 1.02 ± 0.048 | 0.971 ± 0.032 | 0.963 ± 0.039 | 0.956 ± 0.041 | 0.951 ± 0.029
B1AKC9 and related entries (UniProt P29323) | 0.989 ± 0.028 | 0.984 ± 0.038 | 0.966 ± 0.042 | 0.976 ± 0.053 | 0.996 ± 0.034 | 1 ± 0.031
C9JJN9 and related entries (UniProt Q8N3P4) | 0.968 ± 0.021 | 0.978 ± 0.039 | 0.976 ± 0.021 | 0.953 ± 0.032 | 0.955 ± 0.033 | 0.9355 ± 0.0078
A6NEM2 and related entries (UniProt P51610) | 1.02 ± 0.028 | 1.06 ± 0.028 | 1.03 ± 0.015 | 1.06 ± 0.012 | 1.03 ± 0.011 | 1.076 ± 0.01
D6R9C6 and related entries (UniProt P27707) | 1.01 ± 0.017 | 0.972 ± 0.03 | 0.998 ± 0.02 | 1.05 ± 0.083 | 1.06 ± 0.056 | 1.05 ± 0.04
B1AQ74 and related entries (UniProt Q6NSI4) | 1 ± 0.023 | 0.9725 ± 0.0079 | 0.96 ± 0.016 | 0.984 ± 0.022 | 0.9844 ± 0.0049 | 0.9572 ± 0.0048
E3W994 and related entries (UniProt O75122) | 1.04 ± 0.046 | 1.08 ± 0.042 | 1.05 ± 0.048 | 1.08 ± 0.096 | 1.07 ± 0.11 | 1.14 ± 0.086
B4DR80 and related entries (UniProt Q9Y6E0) | 0.999 ± 0.02 | 1.04 ± 0.098 | 0.997 ± 0.012 | 1 ± 0.027 | 0.988 ± 0.016 | 1.01 ± 0.02
A2RUF3 and related entries (UniProt O75044) | 0.9952 ± 0.0018 | 1.05 ± 0.047 | 1.02 ± 0.035 | 0.986 ± 0.015 | 0.972 ± 0.014 | 1.01 ± 0.03

Part of the list above, as tab-separated lines:
Target	NP40-soluble protein abundance (concentration: 1mM)	NP40-soluble protein abundance (concentration: 2mM)	NP40-soluble protein abundance (concentration: 4mM)	NP40-soluble protein abundance (concentration: 6mM)	NP40-soluble protein abundance (concentration: 8mM)	NP40-soluble protein abundance (concentration: 10mM)
C9J0Q5 and related entries (UniProt Q9Y618)	1.03 ± 0.0079	1.05 ± 0.04	1.03 ± 0.035	0.969 ± 0.057	0.951 ± 0.02	1.01 ± 0.052
A6NEP9 and related entries (UniProt Q8NG11)	1.002 ± 0.008	0.988 ± 0.043	0.962 ± 0.015	0.998 ± 0.031	0.943 ± 0.037	0.967 ± 0.023
A2IDA3 and related entries (UniProt P29372)	1.05 ± 0.035	1.04 ± 0.011	1.09 ± 0.036	1.14 ± 0.038	1.14 ± 0.0089	1.21 ± 0.016
UniProt A4D1P6 and related entries	1.05 ± 0.027	1.08 ± 0.042	1.02 ± 0.024	0.995 ± 0.063	0.978 ± 0.025	1 ± 0.048
C9JRZ6 and related entries (UniProt Q9NX63)	1.03 ± 0.062	1.04 ± 0.044	0.954 ± 0.052	0.95 ± 0.1	0.95 ± 0.083	0.95 ± 0.1
A8MYT4 and related entries (UniProt Q8NEB9)	0.995 ± 0.019	0.931 ± 0.099	0.989 ± 0.044	0.93 ± 0.048	0.937 ± 0.039	0.906 ± 0.04
B7Z683 and related entries (UniProt Q12979)	0.981 ± 0.016	0.956 ± 0.061	0.99 ± 0.013	0.931 ± 0.014	0.974 ± 0.049	0.942 ± 0.045
B1ALH6 and related entries (UniProt O14832)	0.99 ± 0.012	1.02 ± 0.048	0.971 ± 0.032	0.963 ± 0.039	0.956 ± 0.041	0.951 ± 0.029
